Experimental data published in publication PMC11235169 (2024).
No constants are given. Whether binding was seen depends on the method and setting. Binding seen in cells or lysates may run through a third protein. Here binding means that the protein was enriched with, or labelled near, the bait; the list need not be complete. Where a sequence is shown, tags or fusion partners need not be part of it.

The chains behind the UniProt entries cited, without tags or fusion partners.
UniProt Q50H33: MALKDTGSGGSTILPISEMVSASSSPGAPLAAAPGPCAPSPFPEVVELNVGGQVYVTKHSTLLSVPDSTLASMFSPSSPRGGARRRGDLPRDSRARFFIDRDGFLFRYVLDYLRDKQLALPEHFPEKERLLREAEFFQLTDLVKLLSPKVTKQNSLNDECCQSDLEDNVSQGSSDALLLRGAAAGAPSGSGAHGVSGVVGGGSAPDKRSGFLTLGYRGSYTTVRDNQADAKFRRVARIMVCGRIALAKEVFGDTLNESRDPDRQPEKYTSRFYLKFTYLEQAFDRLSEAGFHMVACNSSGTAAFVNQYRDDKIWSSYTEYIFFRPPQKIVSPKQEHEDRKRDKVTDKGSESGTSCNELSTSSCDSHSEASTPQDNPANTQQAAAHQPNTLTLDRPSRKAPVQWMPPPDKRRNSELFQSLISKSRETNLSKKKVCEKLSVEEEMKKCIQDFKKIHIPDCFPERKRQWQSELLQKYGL
UniProt Q6WVG3: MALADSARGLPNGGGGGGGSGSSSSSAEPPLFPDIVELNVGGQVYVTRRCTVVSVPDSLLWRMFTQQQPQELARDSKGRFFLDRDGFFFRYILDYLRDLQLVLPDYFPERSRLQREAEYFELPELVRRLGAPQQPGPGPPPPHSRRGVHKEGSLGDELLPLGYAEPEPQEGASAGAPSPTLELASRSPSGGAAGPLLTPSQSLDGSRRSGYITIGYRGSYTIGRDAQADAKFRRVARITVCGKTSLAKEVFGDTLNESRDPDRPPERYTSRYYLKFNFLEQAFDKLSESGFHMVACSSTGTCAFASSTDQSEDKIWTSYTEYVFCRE
UniProt Q5DTY9: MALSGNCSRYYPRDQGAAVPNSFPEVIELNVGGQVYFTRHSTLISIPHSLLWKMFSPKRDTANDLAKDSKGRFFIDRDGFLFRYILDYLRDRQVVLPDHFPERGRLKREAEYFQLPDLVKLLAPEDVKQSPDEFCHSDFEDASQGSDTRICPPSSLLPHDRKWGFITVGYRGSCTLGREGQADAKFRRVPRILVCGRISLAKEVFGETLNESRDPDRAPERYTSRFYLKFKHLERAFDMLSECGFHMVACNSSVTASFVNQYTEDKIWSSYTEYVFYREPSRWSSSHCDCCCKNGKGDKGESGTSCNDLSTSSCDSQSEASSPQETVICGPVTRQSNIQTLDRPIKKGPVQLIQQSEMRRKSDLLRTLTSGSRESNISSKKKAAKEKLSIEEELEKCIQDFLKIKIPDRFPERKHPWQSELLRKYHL

T1: AJAP1-HA (native, from Ajap1^HA/HA knock-in mice) (mouse (endogenous in brain)) (UniProt A2ALI5)
T1 sequence: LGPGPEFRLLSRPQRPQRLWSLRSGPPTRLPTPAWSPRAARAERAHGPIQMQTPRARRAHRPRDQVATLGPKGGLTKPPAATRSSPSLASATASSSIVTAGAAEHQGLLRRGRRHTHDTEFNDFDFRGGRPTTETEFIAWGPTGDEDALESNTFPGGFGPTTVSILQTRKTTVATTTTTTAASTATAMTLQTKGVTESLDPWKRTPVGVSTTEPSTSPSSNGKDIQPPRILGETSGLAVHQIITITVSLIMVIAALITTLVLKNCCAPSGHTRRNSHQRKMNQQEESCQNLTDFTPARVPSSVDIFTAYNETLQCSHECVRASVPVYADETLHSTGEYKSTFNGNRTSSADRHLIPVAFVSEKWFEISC

B1: GB2 (receptor, UniProt Q80T41 41-940)
chain: WARGAPRPPPSSPPLSIMGLMPLTKEVAKGSIGRGVLPAVELAIEQIRNESLLRPYFLDLRLYDTECDNAKGLKAFYDAIKYGPNHLMVFGGVCPSVTSIIAESLQGWNLVQLSFAATTPVLADKKKYPYFFRTVPSDNAVNPAILKLLKHFRWRRVGTLTQDVQRFSEVRNDLTGVLYGEDIEISDTESFSNDPCTSVKKLKGNDVRIILGQFDQNMAAKVFCCAFEESMFGSKYQWIIPGWYEPAWWEQVHVEANSSRCLRRSLLAAMEGYIGVDFEPLSSKQIKTISGKTPQQYEREYNSKRSGVGPSKFHGYAYDGIWVIAKTLQRAMETLHASSRHQRIQDFNYTDHTLGRIILNAMNETNFFGVTGQVVFRNGERMGTIKFTQFQDSREVKVGEYNAVADTLEIINDTIRFQGSEPPKDKTIILEQLRKISLPLYSILSALTILGMIMASAFLFFNIKNRNQKLIKMSSPYMNNLIILGGMLSYASIFLFGLDGSFVSEKTFETLCTVRTWILTVGYTTAFGAMFAKTWRVHAIFKNVKMKKKIIKDQKLLVIVGGMLLIDLCILICWQAVDPLRRTVERYSMEPDPAGRDISIRPLLEHCENTHMTIWLGIVYAYKGLLMLFGCFLAWETRNVSIPALNDSKYIGMSVYNVGIMCIIGAAVSFLTRDQPNVQFCIVALVIIFCSTITLCLVFVPKLITLRTNPDAATQNRRFQFTQNQKKEDSKTSTSVTSVNQASTSRLEGLQSENHRLRMKITELDKDLEEVTMQLQDTPEKTTYIKQNHYQELNDILSLGNFTESTDGGKAILKNHLDQNPQLQWNTTEPSRTCKDPIEDINSPEHIQRRLSLQLPILHHAYLPSIGGVDASCVSPCVSPTASPRHRHVPPSFRVMVSGL
B2: gephyrin (native, mouse brain) (protein, UniProt Q8BUV3 1-769)
chain: MATEGMILTNHDHQIRVGVLTVSDSCFRNLAEDRSGINLKDLVQDPSLLGGTISAYKIVPDEIEEIKETLIDWCDEKELNLILTTGGTGFAPRDVTPEATKEVIEREAPGMALAMLMGSLNVTPLGMLSRPVCGIRGKTLIINLPGSKKGSQECFQFILPALPHAIDLLRDAIVKVKEVHDELEDLPSPPPPLSPPPTTSPHKQTEDKGVQCEEEEEEKKDSGVASTEDSSSSHITAAALAAKIPDSIISRGVQVLPRDTASLSTTPSESPRAQATSRLSTASCPTPKQIRRPDESKGVASRVGSLKARLPSCSSTYSVSEVQSRCSSKENILRASHSAVDITKVARRHRMSPFPLTSMDKAFITVLEMTPVLGTEIINYRDGMGRVLAQDVYAKDNLPPFPASVKDGYAVRAADGPGDRFIIGESQAGEQPTQTVMPGQVMRVTTGAPIPCGADAVVQVEDTELIRESDDGTEELEVRILVQARPGQDIRPIGHDIKRGECVLAKGTHMGPSEIGLLATVGVTEVEVNKFPVVAVMSTGNELLNPEDDLLPGKIRDSNRSTLLATIQEHGYPTINLGIVGDNPDDLLNALNEGISRADVIITSGGVSMGEKDYLKQVLDIDLHAQIHFGRVFMKPGLPTTFATLDIDGVRKIIFALPGNPVSAVVTCNLFVVPALRKMQGILDPRPTIIKARLSCDVKLDPRPEYHRCILTWHHQEPLPWAQSTGNQMSSRLMSMRSANGLLMLPPKTEQYVELHKGEVVDVMVIGRL

Biological target: T1, AJAP1-HA (native, from Ajap1^HA/HA knock-in mice) (mouse (endogenous in brain))
Assay: affinity purification with mass spectrometry; membrane fractions of Ajap1^HA/HA and WT mouse brains solubilised in CL-91; two immobilised anti-HA antibodies; label-free quantification against WT control

binding, binds:
KCTD8 (from UniProt Q50H33 1-476)
KCTD12 (from UniProt Q6WVG3 1-327)
KCTD16 (from UniProt Q5DTY9 1-427)
B1
B2
